According to US20250262315A1 (priority 2021, published 2025):

Experiment: general procedure: Fmoc solid-phase peptide synthesis; 2-Chlorotrityl chloride resin; HATU/DIPEA
Conditions: conjugation step

With Fmoc-peg3-Glu-Gly-Cit-PABC-MMAE the conjugation yield (for the 2 steps) was 57%.

Fmoc-peg3-Glu-Gly-Cit-PABC-MMAF showed a conjugation yield (for the 2 steps) of 85%.

Fmoc-peg3-Glu-Val-(N-Me)Cit-PABC-MMAE showed a conjugation yield (for the 2 steps) of 30%.

Substance Fmoc-peg4-Gly-Cit-PABC-MMAE has a conjugation yield of 56%.
